We go through 2 molecules from PMC10441969, “Small protein Cgl2215 enhances phenolic tolerance by promoting MytA activity in Corynebacterium glutamicum” (Stress Biology, 2022).

In test [1] the target is T1, GST-Cgl2215 (C. glutamicum) (UniProt Q8NNI6).
T1 sequence: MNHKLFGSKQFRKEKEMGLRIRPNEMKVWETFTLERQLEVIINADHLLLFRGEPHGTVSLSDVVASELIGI
Description: pull-down; His6-MytA and GST-Cgl2215 co-expressed in E. coli BL21(DE3); lysate supernatant loaded onto GST-binding resin, washed with five column volumes; western blot against GST or His.

Test [2] concerns the target T2, T25-Cgl2215 (C. glutamicum) (UniProt Q8NNI6).
T2 sequence: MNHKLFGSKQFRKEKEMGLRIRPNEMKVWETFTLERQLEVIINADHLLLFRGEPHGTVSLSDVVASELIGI
Description: two-hybrid; bacterial two-hybrid in E. coli BTH101 (T18-mytA/T25-cgl2215); colony colour on X-Gal plates and β-galactosidase activity, 30 °C.

Results are given in words; binding and its absence hold for the method and conditions named. For some assays here: In cells and extracts the contact can be indirect. Some results given as binding are weak or reduced against the parent protein; the word gives no strength. For some assays here: Tags and fused reporters may be left off the sequences shown.

B1: His6-MytA (enzyme, UniProt P0C1D6 44-657)
chain: QSSNLSSDAVIGSIAQGVTDGLTDYLKPRVEELPAGEVTYPEIAGLPDGVRVISAEWATSKHVILTIQSAAMPERPIKVQLLLPRDWYSSPNREFPEIWALDGLRAIEEQSGWTIETNIEQYYADKNAIVVLPVGGESSFYSDWEGPNNGKNYQWETFLTQELAPILDKGFRSNTDRAITGISMGGTAAVNIATHHPDMFKFVGSFSGYLDTTSAGMPIAISAALADAGGYDANAMWGPVGSERWQENDPKSNVDKLKGKTIYVSSGNGADDFGKEGSVAIGPANAAGVGLEVISRMTSQTFVDRASQAGVEVVASFRPSGVHSWEYWQFEMTQAFPHIANALGMSTEDRGVECAPVGAIADAVADGAMGTCLTNEYDVTGGKAQDFANGRAYWSANTGAFGLVGRINARYSELGGPASWLGYPTSSELKTPDGRGRFVTFEHGSIYWTATTGPWEIPGDMLAAWGTQDYEKGSLGYPTGAAVEYNGGLRQQFEGGYVFRTSNNQSYWVRGEISKKYAEDGIFAQLGFPTGNEKLINGGAFQEFEKGNIYWSASTGAHVILHGDIFDAWGAKGWEQGEYGFPTSDQTAITAGGQTIDFQNGTIRQVNGRIEESR
In the case of B1, the binding entry in test [1] is “binds”.

B2: T18-MytA (enzyme, UniProt P0C1D6 1-657)
chain: MRDTAFRSIKAKAQAKRRSLWIAAGAVPTAIALTMSLAPMASAQSSNLSSDAVIGSIAQGVTDGLTDYLKPRVEELPAGEVTYPEIAGLPDGVRVISAEWATSKHVILTIQSAAMPERPIKVQLLLPRDWYSSPNREFPEIWALDGLRAIEEQSGWTIETNIEQYYADKNAIVVLPVGGESSFYSDWEGPNNGKNYQWETFLTQELAPILDKGFRSNTDRAITGISMGGTAAVNIATHHPDMFKFVGSFSGYLDTTSAGMPIAISAALADAGGYDANAMWGPVGSERWQENDPKSNVDKLKGKTIYVSSGNGADDFGKEGSVAIGPANAAGVGLEVISRMTSQTFVDRASQAGVEVVASFRPSGVHSWEYWQFEMTQAFPHIANALGMSTEDRGVECAPVGAIADAVADGAMGTCLTNEYDVTGGKAQDFANGRAYWSANTGAFGLVGRINARYSELGGPASWLGYPTSSELKTPDGRGRFVTFEHGSIYWTATTGPWEIPGDMLAAWGTQDYEKGSLGYPTGAAVEYNGGLRQQFEGGYVFRTSNNQSYWVRGEISKKYAEDGIFAQLGFPTGNEKLINGGAFQEFEKGNIYWSASTGAHVILHGDIFDAWGAKGWEQGEYGFPTSDQTAITAGGQTIDFQNGTIRQVNGRIEESR
Turning to B2, the binding entry in test [2] was “binds”.
